# Measurements: the supplement of paper PMC8728848
# Some of the results follow.
# How the values were obtained:
# Assay in all cases: glycan array binding signal (z-score within array); higher = stronger binding
# Details in all cases: glycan notation: IUPAC condensed, linker removed
# [1] = biological target: GlcNAc(b1-3)Gal(b1-4)GlcNAc
# In short: (§1)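 Negative Z-scores can be read as non-binding. The Z-score is calculated within each array and then averaged across arrays of one protein sequence at different concentrations or buffers and across linkers. Arrays, 3228 in all, were curated from the Consortium for Functional Glycomics database and kept only where the protein sequence was available.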
# [2] = biological target: GlcNAc(b1-3)Gal(b1-4)GlcNAc(b1-3)Gal(b1-4)GlcNAc
# In short: as §1
# GlcNAc(b1-3)GalNAc = biological target: GlcNAc(b1-3)GalNAc
# In short: as §1
# GlcNAc(b1-3)Man = biological target: GlcNAc(b1-3)Man
# In short: as §1
# [3] = biological target: GlcNAc(b1-3)[GlcNAc(b1-4)][GlcNAc(b1-6)]GlcNAc
# In short: as §1
# [4] = biological target: GlcNAc(b1-3)[GlcNAc(b1-6)]Gal(b1-4)GlcNAc
# In short: as §1
# [5] = biological target: GlcNAc(b1-3)[GlcNAc(b1-6)]GalNAc
# In short: as §1
# [6] = biological target: GlcNAc(b1-4)Gal(b1-4)GlcNAc
# In short: as §1
# GlcNAc(b1-4)GlcNAc = biological target: GlcNAc(b1-4)GlcNAc
# In short: as §1
# [7] = biological target: GlcNAc(b1-4)GlcNAc(b1-4)GlcNAc
# In short: as §1
# [8] = biological target: GlcNAc(b1-4)GlcNAc(b1-4)GlcNAc(b1-4)GlcNAc(b1-4)GlcNAc
# In short: as §1
# [9] = biological target: GlcNAc(b1-4)GlcNAc(b1-4)GlcNAc(b1-4)GlcNAc(b1-4)GlcNAc(b1-4)GlcNAc
# In short: as §1
# [10] = biological target: GlcNAc(b1-4)[GlcNAc(b1-6)]GalNAc
# In short: as §1
# [11] = biological target: GlcNAc(b1-6)Gal(b1-4)GlcNAc
# In short: as §1
# GlcNAc(b1-6)GalNAc = biological target: GlcNAc(b1-6)GalNAc
# In short: as §1
# GlcNAc3Prop(b1-4)GlcNAc = biological target: GlcNAc3Prop(b1-4)GlcNAc
# In short: as §1
# [12] = biological target: GlcNAc6S(b1-3)Gal(b1-4)GlcNAc
# In short: as §1
# Kdn(a2-3)Gal(b1-3)GalNAc = biological target: Kdn(a2-3)Gal(b1-3)GalNAc
# In short: as §1
# Kdn(a2-3)Gal(b1-3)GlcNAc = biological target: Kdn(a2-3)Gal(b1-3)GlcNAc
# In short: as §1
# Kdn(a2-3)Gal(b1-4)Glc = biological target: Kdn(a2-3)Gal(b1-4)Glc
# In short: as §1
# Kdn(a2-3)Gal(b1-4)GlcNAc = biological target: Kdn(a2-3)Gal(b1-4)GlcNAc
# In short: as §1
# [13] = biological target: Kdn(a2-3)Gal(b1-4)[Fuc(a1-3)]GlcNAc
# In short: as §1
# Kdn(a2-6)Gal(b1-4)GlcNAc = biological target: Kdn(a2-6)Gal(b1-4)GlcNAc
# In short: as §1
# [14] = biological target: Man(a1-2)Man(a1-2)Man(a1-3)Man
# In short: as §1
# [15] = biological target: Man(a1-2)Man(a1-2)Man(a1-6)[Man(a1-3)]Man
# In short: as §1
# Man(a1-2)Man(a1-3)Man = biological target: Man(a1-2)Man(a1-3)Man
# In short: as §1
# [16] = biological target: Man(a1-2)Man(a1-3)[Man(a1-2)Man(a1-6)]Man
# In short: as §1
# [17] = biological target: Man(a1-2)Man(a1-3)[Man(a1-2)Man(a1-6)]Man(a1-6)[Man(a1-2)Man(a1-2)Man(a1-3)]Man
# In short: as §1
# [18] = biological target: Man(a1-2)Man(a1-3)[Man(a1-2)Man(a1-6)]Man(a1-6)[Man(a1-2)Man(a1-2)Man(a1-3)]Man(b1-4)GlcNAc(b1-4)GlcNAc
# In short: as §1
# [19] = biological target: Man(a1-2)Man(a1-3)[Man(a1-6)]Man(a1-6)[Man(a1-2)Man(a1-3)]Man(b1-4)GlcNAc(b1-4)GlcNAc
# In short: as §1
# [20] = biological target: Man(a1-2)Man(a1-6)[Man(a1-3)]Man(a1-6)[Man(a1-2)Man(a1-2)Man(a1-3)]Man
# In short: as §1
# [21] = biological target: Man(a1-2)Man(a1-6)[Man(a1-3)]Man(a1-6)[Man(a1-2)Man(a1-2)Man(a1-3)]Man(b1-4)GlcNAc(b1-4)GlcNAc
# In short: as §1
# Man(a1-3)[Man(a1-6)]Man = biological target: Man(a1-3)[Man(a1-6)]Man
# In short: as §1
# [22] = biological target: Man(a1-3)[Man(a1-6)]Man(a1-6)[Man(a1-2)Man(a1-3)]Man(b1-4)GlcNAc(b1-4)GlcNAc
# In short: as §1
# [23] = biological target: Man(a1-3)[Man(a1-6)]Man(a1-6)[Man(a1-3)]Man
# In short: as §1
# [24] = biological target: Man(a1-3)[Man(a1-6)]Man(a1-6)[Man(a1-3)]Man(b1-4)GlcNAc(b1-4)GlcNAc
# In short: as §1
# [25] = biological target: Man(a1-3)[Man(a1-6)]Man(b1-4)GlcNAc(b1-4)GlcNAc
# In short: as §1
# Man(a1-6)Man = biological target: Man(a1-6)Man
# In short: as §1
binder,measurement,setting,value
"4F2hc (Homo sapiens), P08195 (protein) WWHTGALYRIGDLQAFQGHGAGNLAGLKGRLDYLSSLKVKGLVLGPIHKNQKDDVAQTDLLQIDPNFGSKEDFDSLLQSAKKKSIRVILDLTPNYRGENSWFSTQVDTVATKVKDALEFWLQAGVDGFQVRDIENLKDASSFLAEWQNITKGFSEDRLLIAGTNSSDLQQILSLLESNKDLLLTSSYLSDSGSTGEHTKSLVTQYLNATGNRWCSWSLSQARLLTSFLPAQLLRLYQLMLFTLPGTPVFSYGDEIGLDAAALPGQPMEAPVMLWDESSFPDIPGAVSANMTVKGQSEDPGSLLSLFRRLSDQRSKERSLLHGDFHAFSAGPGLFSYIRHWDQNERFLVVLNFGDVGLSAGLQASDLPASASLPAKADLLLSTQPGREEGSPLELERLKLEPHEGLLLRFPYAA",glycan array binding signal (z-score),[1],-1.04
same,glycan array binding signal (z-score),[2],-0.297
same,glycan array binding signal (z-score),GlcNAc(b1-3)GalNAc,-1.12
same,glycan array binding signal (z-score),GlcNAc(b1-3)Man,0.475
same,glycan array binding signal (z-score),[3],0.331
same,glycan array binding signal (z-score),[4],-0.39
same,glycan array binding signal (z-score),[5],0.138
same,glycan array binding signal (z-score),[6],-0.853
same,glycan array binding signal (z-score),GlcNAc(b1-4)GlcNAc,0.587
same,glycan array binding signal (z-score),[7],-0.291
same,glycan array binding signal (z-score),[8],-0.596
same,glycan array binding signal (z-score),[9],-0.813
same,glycan array binding signal (z-score),[10],0.848
same,glycan array binding signal (z-score),[11],0.103
same,glycan array binding signal (z-score),GlcNAc(b1-6)GalNAc,-0.053
same,glycan array binding signal (z-score),GlcNAc3Prop(b1-4)GlcNAc,0.691
same,glycan array binding signal (z-score),[12],-1.04
same,glycan array binding signal (z-score),Kdn(a2-3)Gal(b1-3)GalNAc,0.936
same,glycan array binding signal (z-score),Kdn(a2-3)Gal(b1-3)GlcNAc,0.425
same,glycan array binding signal (z-score),Kdn(a2-3)Gal(b1-4)Glc,0.269
same,glycan array binding signal (z-score),Kdn(a2-3)Gal(b1-4)GlcNAc,-0.517
same,glycan array binding signal (z-score),[13],0.966
same,glycan array binding signal (z-score),Kdn(a2-6)Gal(b1-4)GlcNAc,0.863
same,glycan array binding signal (z-score),[14],-0.86
same,glycan array binding signal (z-score),[15],0.029
same,glycan array binding signal (z-score),Man(a1-2)Man(a1-3)Man,-0.162
same,glycan array binding signal (z-score),[16],-0.794
same,glycan array binding signal (z-score),[17],0.581
same,glycan array binding signal (z-score),[18],-0.185
same,glycan array binding signal (z-score),[19],-1.16
same,glycan array binding signal (z-score),[20],-0.537
same,glycan array binding signal (z-score),[21],-0.939
same,glycan array binding signal (z-score),Man(a1-3)[Man(a1-6)]Man,-0.33
same,glycan array binding signal (z-score),[22],-0.16
same,glycan array binding signal (z-score),[23],-0.542
same,glycan array binding signal (z-score),[24],0.061
same,glycan array binding signal (z-score),[25],0.721
same,glycan array binding signal (z-score),Man(a1-6)Man,-0.058

# Shown bar-delimited: entries from further up.
binder | measurement | setting | value
4F2hc (Homo sapiens), P08195 (protein) WWHTGALYRIGDLQAFQGHGAGNLAGLKGRLDYLSSLKVKGLVLGPIHKNQKDDVAQTDLLQIDPNFGSKEDFDSLLQSAKKKSIRVILDLTPNYRGENSWFSTQVDTVATKVKDALEFWLQAGVDGFQVRDIENLKDASSFLAEWQNITKGFSEDRLLIAGTNSSDLQQILSLLESNKDLLLTSSYLSDSGSTGEHTKSLVTQYLNATGNRWCSWSLSQARLLTSFLPAQLLRLYQLMLFTLPGTPVFSYGDEIGLDAAALPGQPMEAPVMLWDESSFPDIPGAVSANMTVKGQSEDPGSLLSLFRRLSDQRSKERSLLHGDFHAFSAGPGLFSYIRHWDQNERFLVVLNFGDVGLSAGLQASDLPASASLPAKADLLLSTQPGREEGSPLELERLKLEPHEGLLLRFPYAA | glycan array binding signal (z-score) | GlcNAc(b1-3)Man | 0.475
same | glycan array binding signal (z-score) | [3] | 0.331
